# Measurements reported in PubChem BioAssay AID1159600 (NIAID, 2016).
# Screen: 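Effect of silencing core TLR signalling genes on R848-induced TNF reporter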 (primary screen)
# Cell system: human THP-1 TNF reporter clone B5, made macrophage-like with PMA
# Knock-down reagent: single siRNA against human genes
# Duration: 4 h ligand stimulation, assayed 48 to 72 h after siRNA transfection
# Challenge: R848 (TLR7/8 agonist) for 4 hours before lysis; dose not given
# Read-out: 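TNF promoter firefly to renilla luciferase ratio after 4 h R848, scaled per plate by median and MAD, robust z-score against negative controls, mean of replicates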
# Direction: TNF reporter z-score: higher = stronger TNF promoter reporter signal after R848
# Call rule: 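siRNAs graded by distance of mean z-score from zero in steps of 1, 1.5, 2 and 2.5; active calls sit at roughly -1.5 or below, or 1.5 or above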
# Calls: active = strong change in TNF reporter (up or down); inactive = little change
# Here is a random part of 756 reagents. Over the whole deposit, 134 (18%) are marked active. 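Active includes both reduced and increased reporter signal, though most active siRNAs reduce it; R848 dose unknown.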 Not stated in the record: the amount of reagent.
Target gene,PubChem SID,TNF reporter z-score,call
TICAM1,SID303070786,-1.46,inactive
TICAM1,SID303070787,0.119,inactive
TICAM1,SID303070788,1.23,inactive
TICAM1,SID303070789,-1.47,inactive
TICAM1,SID303070790,0.442,inactive
TICAM1,SID303070791,0.354,inactive
CD180,SID303071116,-0.682,inactive
CD180,SID303071117,-0.704,inactive
CD180,SID303071118,-2.53,active
CD180,SID303071119,-1.08,inactive
CD180,SID303071120,-0.759,inactive
CD180,SID303071121,-0.26,inactive
IL33R,SID303071134,0.00084,inactive
IL33R,SID303071135,-0.534,inactive
IL33R,SID303071136,0.355,inactive
IL33R,SID303071137,1,inactive
IL33R,SID303071138,-2.57,active
IL33R,SID303071139,-0.0474,inactive
TAB1,SID303070594,-0.173,inactive
TAB1,SID303070595,-2.21,active
TAB1,SID303070596,0.37,inactive
TAB1,SID303070597,-1.99,active
TAB1,SID303070598,-1.52,active
TAB1,SID303070599,-0.666,inactive
UBE2N,SID303070570,-0.234,inactive
UBE2N,SID303070571,-1.29,inactive
UBE2N,SID303070572,0.426,inactive
UBE2N,SID303070573,-0.031,inactive
UBE2N,SID303070574,-1.52,active
UBE2N,SID303070575,0.9,inactive
TLR3,SID303070450,0.891,inactive
TLR3,SID303070451,-0.203,inactive
TLR3,SID303070452,-0.302,inactive
TLR3,SID303070453,-0.853,inactive
TLR3,SID303070454,0.619,inactive
TLR3,SID303070455,0.173,inactive
MAP2K1,SID303070690,-0.797,inactive
MAP2K1,SID303070691,1.32,inactive
MAP2K1,SID303070692,-1.47,inactive
MAP2K1,SID303070693,-0.318,inactive
MAP2K1,SID303070694,0.547,inactive
MAP2K1,SID303070695,1.39,inactive
MYD88,SID303070528,-4.48,active
MYD88,SID303070529,-5,active
MYD88,SID303070530,-4.54,active
MYD88,SID303070531,-2.12,active
MYD88,SID303070532,0.471,inactive
MYD88,SID303070533,0.591,inactive

Look-ups from the list.
Result for IL33R [SID303071137] in “call”: inactive
MYD88 [SID303070529], TNF reporter z-score = -5
Result for TAB1 [SID303070598] in “call”: active
Result of UBE2N [SID303070575] in “call”: inactive
Result of MYD88 [SID303070531] in “call”: active
Value for UBE2N [SID303070573] under “call”: inactive
